{"source": "PubChem BioAssay AID445", "about": "(National Center for Advancing Translational Sciences (NCATS), 2006)", "test": "IkB Signaling", "conditions": "ABC-DLBCL IkBa-CBG/CBR dual luciferase ratio (green luciferase fused to IkBa over red control in OCI-Ly3 lymphoma cells), 4 h", "in_short": "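Luminescence ratio of IκBα-fused green versus native red beetle luciferase in OCI-Ly3 cells, 4 h post-doxycycline with compound; red signal alone, scaled from basal (0%) to zero light (-100%), flagged nonspecific or cytotoxic effects.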", "key": {"[1]": {"conditions": "measured here: control luc red channel unless noted"}}, "note": "This is one part of the list. Further columns of the screen follow, without active or inactive calls. Most of these compounds were active or inconclusive in the main read-out, so they are no random draw. Potencies come from curve fits of mixed quality, noted in brackets.", "data": [{"smiles": "Cc1nn(-c2ccccn2)c2c1C(c1ccsc1)C1=C(CCCC1=O)N2", "note": "(stereo not drawn)", "values": [{"measurement": "AC50", "setting": "[1]", "value": "20 µM [falling, single point]"}]}, {"smiles": "CC1CCN(S(=O)(=O)c2ccc3c(ccc(=O)n3CC(=O)NCc3ccccc3)c2)CC1", "values": [{"measurement": "AC50", "setting": "[1]", "value": "0.158 µM [falling, full curve, poor fit]"}]}, {"smiles": "Cc1ccc(CCNC(=O)c2oc(=O)c3ccccc3c2-c2ccc(C)cc2)cc1", "values": [{"measurement": "AC50", "setting": "[1]", "value": "7.94 µM [falling, partial curve]"}]}, {"smiles": "CCc1ccc2oc(C(=O)NCC(c3ccc(Cl)cc3)N3CCOCC3)c(C)c2c1", "note": "(stereo not drawn)", "values": [{"measurement": "AC50", "setting": "[1]", "value": "20 µM [falling, partial curve]"}]}, {"smiles": "COc1cc2cc(C(c3nnnn3C3CCCCC3)N(C)C3CCCCC3)c(=O)[nH]c2cc1OC", "note": "(stereo not drawn)", "values": [{"measurement": "AC50", "setting": "[1]", "value": "25.1 µM [falling, single point]"}]}, {"smiles": "Cc1ccc(-n2ncc3c(N4CCCCC4)ncnc32)cc1Cl", "values": [{"measurement": "AC50", "setting": "[1]", "value": "1.26 µM [falling, partial curve]"}]}, {"smiles": "COc1cccc(NC(=O)c2nnn(CCc3ccccc3)c2N)c1", "values": [{"measurement": "AC50", "setting": "[1]", "value": "10 µM [falling, partial curve]"}]}, {"smiles": "Cc1ccc(NCc2nnc(SCc3ccc(C#N)cc3)n2Cc2ccco2)c(C)c1", "values": [{"measurement": "AC50", "setting": "[1]", "value": "25.1 µM [falling, partial curve]"}]}, {"smiles": "CC(=O)Nc1ccc(NC(=O)CCc2c(C)nc3c(c(C)nn3-c3ccc(C)cc3)c2C)cc1", "values": [{"measurement": "AC50", "setting": "[1]", "value": "10 µM [falling, partial curve]"}]}, {"smiles": "CC(=O)Nc1ccccc1-c1nc2ccccc2n(C(C)C(=O)Nc2cc(Cl)ccc2C)c1=O", "note": "(stereo not drawn)", "values": [{"measurement": "AC50", "setting": "[1]", "value": "3.16 µM [rising, partial curve]"}]}, {"smiles": "CCN(CC)S(=O)(=O)c1nnc(NC(=O)COc2ccc(C)cc2)s1", "values": [{"measurement": "AC50", "setting": "[1]", "value": "0.501 µM [rising, full curve, poor fit]"}]}, {"smiles": "Cc1ccc(C)c(NC(=O)CSc2nnc(CNC(=O)c3ccccc3)n2-c2ccccc2)c1", "values": [{"measurement": "AC50", "setting": "[1]", "value": "15.8 µM [falling, partial curve]"}]}, {"smiles": "O=C(Nc1ccccc1Cl)c1ccc(F)c(S(=O)(=O)NCc2ccc(Cl)c(Cl)c2)c1", "values": [{"measurement": "AC50", "setting": "[1]", "value": "25.1 µM [falling, partial curve]"}]}, {"smiles": "COc1ccc(CN2CCCN(CC(=O)Nc3cc(C)ccc3C)S2(=O)=O)cc1", "values": [{"measurement": "AC50", "setting": "[1]", "value": "12.6 µM [falling, partial curve, poor fit]"}]}, {"smiles": "O=C(O)CCC(=O)c1ccc2ccc3cccc4ccc1c2c34", "values": [{"measurement": "AC50", "setting": "[1]", "value": "0.631 µM [falling, full curve]"}]}, {"smiles": "CCOC(=O)Cn1c(C2CC(=O)N(c3ccc(C)cc3)C2)nc2ccccc21", "note": "(stereo not drawn)", "values": [{"measurement": "AC50", "setting": "[1]", "value": "25.1 µM [falling, partial curve]"}]}, {"smiles": "O=C(c1ccncc1)c1ccc(N2CCN(C3CC(=O)N(Cc4ccccc4)C3=O)CC2)cc1", "note": "(stereo not drawn)", "values": [{"measurement": "AC50", "setting": "measured here: IkB-luc green channel", "value": "2 µM [falling, partial curve]"}, {"measurement": "AC50", "setting": "measured here: control luc red channel", "value": "10 µM [falling, partial curve]"}]}, {"smiles": "CC1=C(C(=O)OC2CCCC2)C(c2ccc(C)o2)C2=C(CC(c3cccs3)CC2=O)N1", "note": "(stereo not drawn)", "values": [{"measurement": "AC50", "setting": "[1]", "value": "5.01 µM [falling, partial curve]"}]}, {"smiles": "Cc1cc(C)c(-c2cc(C(=O)Nc3c(C)n(C)n(-c4ccccc4)c3=O)[nH]n2)c(O)c1", "values": [{"measurement": "AC50", "setting": "[1]", "value": "12.6 µM [falling, partial curve]"}]}, {"smiles": "CCc1ccc(C2=CC(c3cccc(C)c3)n3c(nc4ccccc43)N2)cc1", "note": "(stereo not drawn)", "values": [{"measurement": "AC50", "setting": "[1]", "value": "0.794 µM [falling, partial curve]"}]}, {"smiles": "Cc1cccc(N(CC(=O)NCc2ccccc2)S(C)(=O)=O)c1C", "values": [{"measurement": "AC50", "setting": "[1]", "value": "2 µM [falling, partial curve, poor fit]"}]}, {"smiles": "Cc1ccc(C)c(NC(=O)Cn2cnc3c(oc4ccccc43)c2=O)c1", "values": [{"measurement": "AC50", "setting": "[1]", "value": "25.1 µM [falling, single point]"}]}, {"smiles": "Cc1cc(C)cc(-n2nnnc2SCC(=O)Nc2cccc(NC(=O)c3ccco3)c2)c1", "values": [{"measurement": "AC50", "setting": "[1]", "value": "15.8 µM [falling, partial curve]"}]}, {"smiles": "COc1ccc(CNC(=O)CSCc2nc(-c3ccccc3F)oc2C)cc1", "values": [{"measurement": "AC50", "setting": "[1]", "value": "15.8 µM [falling, partial curve]"}]}, {"smiles": "COc1ccccc1-c1cc(C(=O)N2CCN(c3ccccc3)CC2)no1", "values": [{"measurement": "AC50", "setting": "[1]", "value": "0.631 µM [falling, full curve]"}]}, {"smiles": "c1coc(CN(Cc2cccs2)Cc2nnnn2C2CCCCC2)c1", "values": [{"measurement": "AC50", "setting": "[1]", "value": "39.8 µM [falling, single point]"}]}, {"smiles": "CCOc1ccc2nc(NC(=O)C3CCCN(S(=O)(=O)c4cccs4)C3)sc2c1", "note": "(stereo not drawn)", "values": [{"measurement": "AC50", "setting": "[1]", "value": "31.6 µM [falling, single point]"}]}, {"smiles": "COc1ccc(NC(=O)C(c2ccccc2)N2Cc3ccccc3C2=O)cc1", "note": "(stereo not drawn)", "values": [{"measurement": "AC50", "setting": "[1]", "value": "3.98 µM [rising, partial curve]"}]}, {"smiles": "Cc1cc(C)c2c(=O)cc(C(=O)Nc3ccc(C)c(Cl)c3)oc2c1", "values": [{"measurement": "AC50", "setting": "[1]", "value": "2.51 µM [rising, partial curve]"}]}, {"smiles": "COc1cc(OC)c(NC(=O)NCCn2nnc3cc(S(=O)(=O)N(C)C)ccc32)cc1Cl", "values": [{"measurement": "AC50", "setting": "[1]", "value": "10 µM [falling, partial curve]"}]}, {"smiles": "CCOc1ccc(CCNC(=O)C(CC)n2nc(C)c3c(C)n(-c4ccccc4)nc3c2=O)cc1", "note": "(stereo not drawn)", "values": [{"measurement": "AC50", "setting": "[1]", "value": "20 µM [falling, partial curve]"}]}, {"smiles": "CCCCSCCCNC(=O)C1CCN(Cc2nc(-c3ccc(CC)cc3)oc2C)CC1", "values": [{"measurement": "AC50", "setting": "[1]", "value": "25.1 µM [falling, partial curve]"}]}]}
